## Results of single-concentration screens

Each number is a percent effect as filed.
The controls that fix the scale are not given in the record; negative values are as filed.
The compounds are a random part of those screened.

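Assay of Toxoplasma gondii numbers, read through their beta-galactosidase reporter with a colour substrate. Concentration: 10 µM. Higher reads as fewer parasites (inferred from which compounds were picked for retests). About 67,000 compounds were tested under these conditions; 0.38% (about 260) showed 50% or more at least once.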

| # | SMILES | effect |
|---|---|---|
| 1 | `Cc1cc(C)c(CNC(=O)NCCNc2ncccn2)c(=O)[nH]1` | -5.357 |
| 2 | `Cc1cc2ccncc2n1CC1(O)CCN(C(=O)c2ccccn2)CC1` | -2.554 |
| 3 | `CNC(=O)c1cccc(C2CNCCN2C)c1` (stereo not shown) | 6.086 |
| 4 | `O=C(c1cc[nH]n1)N1CCOCC2(C1)CN(c1ccccc1)C(=O)CO2` (stereo not shown) | 13.16 |
| 5 | `O=C(CCn1ccc2ccc(Br)cc21)NCc1ccc(C(=O)O)cc1` | 3.2 |
| 6 | `Cc1ccc(C#N)c(N2CC(C)(C)[C@@](C)(O)C2)n1` | -0.918 |
| 7 | `O=C(CN1CCc2[nH]c3ccccc3c2C1)NCc1ccco1` | 6.433 |
| 8 | `CS(=O)(=O)N1CCN(C(=O)c2cc(-c3ccco3)cs2)CC1` | -4.697 |
| 9 | `COc1ccc(C2(c3nc(-c4cccnc4)no3)CCOCC2)cc1` | -9.66 |
| 10 | `CNCCCNC1CCN(c2ccc(-n3ccnc3)cc2)CC1` | 9.405 |
| 11 | `CC(NC(=O)Cc1cc2c(cc1Cl)OCCO2)c1ccncn1` (stereo not shown) | -17.27 |
| 12 | `Cc1cnn(CC2CN(c3nc4ccccc4o3)CCO2)c1` (stereo not shown) | -4.203 |
| 13 | `Cn1cc(-c2csc(CN3CCOCC3)n2)cn1` | 4.711 |
| 14 | `Cc1cccc(OCCCNC(=O)Cn2ccc(C)cc2=O)c1` | -1.421 |
| 15 | `CS(=O)(=O)N1CCN(c2cnnc(N3CCCC3)c2)CC1` | 3.452 |
| 16 | `Cc1ccccc1C(=O)NC1CCN(Cc2ncc(C(C)(C)C)o2)CC1` | -6.616 |
| 17 | `CN(C)c1ccc(-c2cccc(-c3ccn(CCCO)n3)c2)nn1` | -8.308 |
| 18 | `Cc1cc(C)nc(Nc2cccc(C3CCCN(C)C3)n2)n1.O=CO` (stereo not shown) | 13.26 |
| 19 | `O=C(NCC1(O)CCSC1)c1cccc(-n2cccn2)c1` (stereo not shown) | -3.444 |
| 20 | `Cn1c(N)nnc1SCc1c(F)cccc1Br` | -33.78 |
| 21 | `NC(=O)C(NC1CCN(Cc2ccc(F)cc2)CC1)c1ccccc1` (stereo not shown) | 12.78 |
| 22 | `Cc1nc(C)c(C(C)NCc2cnc(N3CCOCC3)nc2)s1.Cl` (stereo not shown) | -10.06 |
| 23 | `Cc1cccc(CNC(CN2CCN(C)CC2)c2ccccc2)c1` (stereo not shown) | 1.223 |
| 24 | `[H][C@@]12CS(=O)(=O)C[C@]1([H])N(CCCOc1ccccc1)CCN2CC=C(C)C` | -0.1729 |
| 25 | `Fc1ccc(C(CNc2ccncn2)N2CCCC2)cc1` (stereo not shown) | 32.6 |
| 26 | `CCn1ncnc1C(C)Nc1cc(C)c2ccc(SC)cc2n1` (stereo not shown) | -0.649 |
| 27 | `CC(=O)N1CCCn2c(nc(CNS(=O)(=O)C3CC3)cc2=O)C1` | -1.076 |
| 28 | `O=C(CCCOc1cccc(F)c1)N1CCCC(n2cccn2)C1` (stereo not shown) | 3.573 |
| 29 | `COCC1c2nnn(C)c2CCN1C(=O)c1ccc(OC)c(F)c1` (stereo not shown) | -7.919 |
| 30 | `O=C(Cn1cccn1)N1CCC(c2nnc(-c3ccsc3)o2)CC1` | 7.583 |
| 31 | `CC(=O)CCC(=O)N1CCC2(CC1)N=C(CCC(C)C)NC2=O` | 5.255 |
| 32 | `CCCS(=O)(=O)N1CCCC(CCC(=O)N(C)CCc2ccccn2)C1` (stereo not shown) | -0.7476 |
| 33 | `[H][C@@]12CN(C(=O)c3cnccn3)C[C@]1([H])CN(c1cc(OC)ncn1)C2` | -0.3944 |
| 34 | `CC(=O)NCc1nnc2n1CCN(c1nc(C)nc3sccc13)CC2` | -9.684 |
| 35 | `COCc1ncc(CN2CCC3(CCNCC3)CC2)cn1` | 14.96 |
| 36 | `CN(Cc1cc(C(C)(C)C)n[nH]1)C(=O)c1c[nH]nc1-c1cccc(F)c1` | 8.355 |
| 37 | `CNc1nc2c(s1)C(c1ccc(F)cc1Cl)CC(=O)N2` (stereo not shown) | -18.02 |
| 38 | `CC(C)(C)C(=O)NS(=O)(=O)c1ccc(C#N)c(C(F)(F)F)c1` | 16.07 |
| 39 | `Cc1cnn(CCNCc2ccc(OCc3ccncc3)cc2)c1` | -1.958 |
| 40 | `O=C(Nc1nc2c(s1)CN(S(=O)(=O)C1CC1)CC2)c1ccc(=O)[nH]c1` | 4.002 |
| 41 | `O=C(NCC1(CO)CC1)c1ccccc1Br` | -25.93 |
| 42 | `Cn1cc(C2COC3(CCN(C(=O)c4cnccn4)CC3)C2)cn1` (stereo not shown) | 1.642 |
| 43 | `CC(C)CNC(=O)C1=NOC2(CCN(Cc3ccc(C(C)C)cc3)C2)C1` (stereo not shown) | 12.1 |
| 44 | `O=S(=O)(CCCn1cncn1)Cc1cccc(F)c1` | -4.637 |
| 45 | `COc1c(C2CCCN2C(=O)c2cc(C3CC3)on2)c(C)nn1C` (stereo not shown) | 14.13 |
| 46 | `COc1cccc(CCCN2CCC(N(C)S(C)(=O)=O)CC2)c1` | -10.41 |
| 47 | `Cc1csc(CNC(=O)N(C)Cc2ccc3c(c2)OCCO3)n1` | 5.211 |
| 48 | `Cc1cnn(C2CCCN(C(=O)Cc3cn4ccccc4n3)C2)c1` (stereo not shown) | 1.744 |
| 49 | `CC(NC(=O)c1cccc[n+]1[O-])c1ccc2c(c1)CCC(=O)N2` (stereo not shown) | 8.895 |
| 50 | `Cc1ccc(C(=O)O)cc1-c1cccc(C(C)N(C)C)c1` (stereo not shown) | 14.82 |
| 51 | `Cc1cc(C)c(CNC(=O)NCC(O)c2ccc(Cl)cc2)c(=O)[nH]1` (stereo not shown) | 11.45 |
| 52 | `Cc1sc(NC(=O)CCC(=O)O)c(C(N)=O)c1-c1ccc(Cl)cc1Cl` | -1.311 |
| 53 | `C1CCCN(C2CCCN(Cc3noc(C4CC4)n3)C2)CC1` (stereo not shown) | 15.85 |
| 54 | `CCOCC1CN(C)Cc2cnn(CC3CCCC3)c21.O=C(O)C(F)(F)F.O=C(O)C(F)(F)F` (stereo not shown) | -0.7383 |
| 55 | `COc1c(CNCC(O)c2ccccc2)c(C(C)C)nn1C` (stereo not shown) | 5.385 |
| 56 | `CCS(=O)(=O)c1ccccc1N1CCC(NC(=O)C2CC2)CC1` | 12.41 |
| 57 | `Cc1noc(C)c1CN(C)C(=O)NC(C)Cc1ccco1` (stereo not shown) | -0.8876 |
| 58 | `Cc1cc(C)cc(C(=O)NCCS(=O)(=O)N2CCSCC2)c1` | 11.49 |
| 59 | `COCCCNC(=O)CN(C)Cc1ccc(F)cc1Cl` | 8.72 |
| 60 | `Cc1cc(C)n(-c2cncc(NCCNC(=O)C(C)C)n2)n1` | -1.435 |
| 61 | `Cc1cc(C[C@@H]2COC[C@@H]2NC(=O)CN2CCCN(C)CC2)on1` | 2.846 |
| 62 | `Cc1ccc(C(=O)NCC(O)CN2CCCC2=O)cc1Cl` (stereo not shown) | 4.779 |
| 63 | `COCCOc1ccnc(-c2noc([C@@H]3CCCN3CC(C)(C)C)n2)c1` | -7.403 |
| 64 | `Cc1[nH]ccc1C(=O)N1CCCN1C(=O)OC(C)(C)C` | 6.649 |
| 65 | `COc1cc(N2C[C@@H](C)[C@](O)(C3CC3)C2)nc(N)n1` | -23.08 |
| 66 | `O=C(CC1CC1)N1CCC2(CC1)CN(c1ncccn1)CCO2` | -1.83 |
| 67 | `Cc1cn[nH]c1C1CCCN1Cc1ccc(F)c(F)c1` (stereo not shown) | -4.117 |
| 68 | `Cn1ccnc1CN1CCN(Cc2cc(C#N)ccc2F)CC1` | 4.308 |
| 69 | `COCCN1CCCC(c2nc(C)n3c(C)c(C)sc23)C1` (stereo not shown) | -7.295 |
| 70 | `CCc1cc(C(F)(F)F)c2c(C3CCCN(C(=O)COC)C3)noc2n1` (stereo not shown) | 3.036 |
| 71 | `O=C(O)C(F)(F)F.[H][C@@]12COC[C@]1([H])[C@H](OCc1csc(C)n1)CN2Cc1ccc(C)s1` | -1.775 |
| 72 | `Cn1ccnc1CN1CC[C@@H](NS(C)(=O)=O)[C@@H]1Cc1cccnc1` | -1.452 |
| 73 | `Cc1nsc(N2CCN(C(=O)Nc3cccc(F)c3)CC2)n1` | 8.996 |
| 74 | `Cc1cc(N2CCCC(N(C)C)C2)n2nc(C)cc2n1` (stereo not shown) | -33.32 |
| 75 | `Cc1c(C)n(Cc2ccncc2)c2nc3c(c(N)c12)CCCCCC3` | 15.11 |
| 76 | `CCc1cccc(NC(=O)CCN2CC=C(c3cnn(C)c3)CC2)c1` | 17.78 |
| 77 | `CCOc1ccc(CN2CCCC(c3cc4ncccc4[nH]3)C2)cc1` (stereo not shown) | 30.31 |
| 78 | `COc1ccc(OC)c(C2CCN(Cc3nc(C)n4ccccc34)C2)c1` (stereo not shown) | -5.208 |
| 79 | `[H][C@@]12C[C@@H](Oc3cncnc3)CN1CCN(C(=O)c1ccc(C)nc1)C2` | 6.281 |

Source: ChEMBL document CHEMBL3988442, “University of Dundee, Small-Polar-MMV Screening Library” (2021).